Experimental data as given in paper PMC6982044.
These are yes or no findings as the source states them, for the method shown. In cells and extracts the contact can be indirect. Some entries that bind do so weakly or less than the wild type.

Sequences of proteins named here, by UniProt entry; tags and fusion partners are left off. A change or cut given only in a name is not applied to a line headed by its entry. Residues count along the entry.
UniProt P53563, residues 61-233: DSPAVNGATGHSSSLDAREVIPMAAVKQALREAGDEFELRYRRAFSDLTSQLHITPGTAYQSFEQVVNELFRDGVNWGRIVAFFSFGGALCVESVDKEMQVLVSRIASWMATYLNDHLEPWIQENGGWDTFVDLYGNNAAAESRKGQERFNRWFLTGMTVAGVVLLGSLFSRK
UniProt Q07812: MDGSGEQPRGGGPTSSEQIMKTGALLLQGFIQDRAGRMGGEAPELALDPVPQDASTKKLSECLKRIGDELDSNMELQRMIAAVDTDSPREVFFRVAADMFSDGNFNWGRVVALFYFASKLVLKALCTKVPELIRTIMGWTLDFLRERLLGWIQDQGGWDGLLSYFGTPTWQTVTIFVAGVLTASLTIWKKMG

Assays:
[1] = target: HA-tagged ∆N-Bcl-xL (rat) (rat) (UniProt P53563); test: co-IP; HA-tagged ΔN-Bcl-xL immunoprecipitated (Pierce HA tag IP/Co-IP kit) from lysate of transfected HEK293T cells, without α-TCT; blot with anti-Bax (monomeric)
[2] = target: HA-tagged ∆N-Bcl-xL (rat) (rat) (UniProt P53563); test: co-IP; HA-tagged ΔN-Bcl-xL immunoprecipitated (Pierce HA tag IP/Co-IP kit) from lysate of transfected HEK293T cells, in the presence of α-TCT (concentration not stated); blot with anti-Bax (monomeric)

binding [1]: binds
binding [2]: no binding (condition: with α-TCT)
Substance: Bax (from UniProt Q07812 1-192)
